In publication PMC5696369:
Results are given in words; binding and its absence hold for the method and conditions named. In cells and extracts the contact can be indirect. Here binding means that the protein was enriched with, or labelled near, the bait; the list need not be complete. Where a sequence is shown, tags or fusion partners need not be part of it.

Sequences of proteins named here, by UniProt entry; tags and fusion partners are left off.
UniProt O00471: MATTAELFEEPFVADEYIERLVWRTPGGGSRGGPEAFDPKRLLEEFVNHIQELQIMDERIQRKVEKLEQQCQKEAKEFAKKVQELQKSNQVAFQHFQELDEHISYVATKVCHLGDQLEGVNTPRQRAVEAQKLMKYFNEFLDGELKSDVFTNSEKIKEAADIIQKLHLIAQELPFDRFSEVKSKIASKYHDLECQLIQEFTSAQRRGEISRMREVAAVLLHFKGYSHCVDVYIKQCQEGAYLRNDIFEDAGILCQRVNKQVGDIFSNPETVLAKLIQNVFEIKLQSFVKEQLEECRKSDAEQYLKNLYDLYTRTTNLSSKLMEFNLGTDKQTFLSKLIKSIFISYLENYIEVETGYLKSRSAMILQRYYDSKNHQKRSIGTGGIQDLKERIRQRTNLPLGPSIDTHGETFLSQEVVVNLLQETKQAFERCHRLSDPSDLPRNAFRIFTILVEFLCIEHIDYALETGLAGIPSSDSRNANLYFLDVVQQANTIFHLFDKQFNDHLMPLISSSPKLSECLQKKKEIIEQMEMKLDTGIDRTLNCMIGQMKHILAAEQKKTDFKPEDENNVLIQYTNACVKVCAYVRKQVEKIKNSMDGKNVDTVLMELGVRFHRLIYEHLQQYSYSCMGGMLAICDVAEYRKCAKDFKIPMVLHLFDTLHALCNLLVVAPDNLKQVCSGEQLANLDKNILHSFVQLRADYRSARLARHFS
UniProt Q9UPT5: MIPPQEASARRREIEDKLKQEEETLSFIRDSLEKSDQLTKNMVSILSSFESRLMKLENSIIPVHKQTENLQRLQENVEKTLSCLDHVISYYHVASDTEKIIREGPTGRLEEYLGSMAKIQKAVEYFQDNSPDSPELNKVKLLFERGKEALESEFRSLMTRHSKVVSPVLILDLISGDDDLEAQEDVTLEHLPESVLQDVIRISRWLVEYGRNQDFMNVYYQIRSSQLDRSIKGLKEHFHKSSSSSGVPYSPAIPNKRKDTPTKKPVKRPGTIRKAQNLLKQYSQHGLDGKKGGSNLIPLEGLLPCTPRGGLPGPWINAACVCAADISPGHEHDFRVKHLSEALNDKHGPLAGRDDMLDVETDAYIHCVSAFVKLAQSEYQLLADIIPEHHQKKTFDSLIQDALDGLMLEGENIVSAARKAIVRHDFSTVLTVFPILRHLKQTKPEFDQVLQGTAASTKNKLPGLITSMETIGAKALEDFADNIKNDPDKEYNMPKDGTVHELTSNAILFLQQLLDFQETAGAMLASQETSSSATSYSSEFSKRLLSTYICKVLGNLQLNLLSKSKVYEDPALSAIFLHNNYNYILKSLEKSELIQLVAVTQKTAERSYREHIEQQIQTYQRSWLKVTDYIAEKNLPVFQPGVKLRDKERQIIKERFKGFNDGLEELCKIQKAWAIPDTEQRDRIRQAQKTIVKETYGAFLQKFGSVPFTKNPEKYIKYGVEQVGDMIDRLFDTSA

Columns and labels:
[1] = target: T1, FLAG-tagged DPPA3 1-60 aa-mVenus (mouse) (UniProt Q8QZY3); assay: affinity purification with mass spectrometry; anti-FLAG M2 affinity gel on lysates of transiently transfected HEK 293T cells (IP buffer: 50 mM Tris pH 7.4, 150 mM NaCl, 10% glycerol, 1% Triton X-100), 4 °C; washed twice with 500 mM NaCl buffer, then six times with IP buffer; eluted with FLAG …; CBB-stained bands of 75-100 kDa cut out and identified by LC-MS/MS
T1 sequence: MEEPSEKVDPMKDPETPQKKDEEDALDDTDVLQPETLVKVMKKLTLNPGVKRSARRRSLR

[2] = target: T2, FLAG-tagged DPPA3 WT (1-150 aa)-mVenus (mouse) (UniProt Q8QZY3); assay: as above
T2 sequence: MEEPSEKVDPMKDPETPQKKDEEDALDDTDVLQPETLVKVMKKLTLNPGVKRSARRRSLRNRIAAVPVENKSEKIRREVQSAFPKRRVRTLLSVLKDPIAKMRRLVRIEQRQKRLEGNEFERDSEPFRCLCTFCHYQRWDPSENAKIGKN

Row | binding [1] | binding [2] | Substance
1 | binds | binds | EXOC5 (from UniProt O00471 1-708)
2 | binds | binds | EXOC7 (from UniProt Q9UPT5 1-735)
